Results reported in ChEMBL document CHEMBL1132992, “Cyclin-dependent kinase inhibition by new C-2 alkynylated purine derivatives and molecular structure of a CDK2-inhibitor complex” (J Med Chem, 2000).

Sequences of proteins named here, by UniProt entry; tags and fusion partners are left off.
UniProt O95067, whole entry: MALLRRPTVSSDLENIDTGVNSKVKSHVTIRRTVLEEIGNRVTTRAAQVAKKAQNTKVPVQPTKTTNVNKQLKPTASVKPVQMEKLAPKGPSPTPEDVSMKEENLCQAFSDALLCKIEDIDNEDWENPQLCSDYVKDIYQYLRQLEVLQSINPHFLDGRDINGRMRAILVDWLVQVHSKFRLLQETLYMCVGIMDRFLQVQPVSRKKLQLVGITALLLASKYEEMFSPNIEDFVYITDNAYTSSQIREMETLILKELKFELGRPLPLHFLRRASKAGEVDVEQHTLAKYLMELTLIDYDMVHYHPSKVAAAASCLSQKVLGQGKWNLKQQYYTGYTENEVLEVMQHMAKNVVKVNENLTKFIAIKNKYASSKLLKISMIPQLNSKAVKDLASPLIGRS
UniProt P06493, whole entry: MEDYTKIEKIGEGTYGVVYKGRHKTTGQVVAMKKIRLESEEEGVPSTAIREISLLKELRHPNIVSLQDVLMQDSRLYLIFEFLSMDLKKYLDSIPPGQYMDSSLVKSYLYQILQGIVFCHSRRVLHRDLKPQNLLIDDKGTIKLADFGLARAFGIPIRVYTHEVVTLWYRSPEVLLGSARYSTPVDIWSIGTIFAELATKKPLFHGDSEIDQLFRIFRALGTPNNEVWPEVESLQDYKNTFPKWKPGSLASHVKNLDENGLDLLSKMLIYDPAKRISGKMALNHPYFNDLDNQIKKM
UniProt P14635, whole entry: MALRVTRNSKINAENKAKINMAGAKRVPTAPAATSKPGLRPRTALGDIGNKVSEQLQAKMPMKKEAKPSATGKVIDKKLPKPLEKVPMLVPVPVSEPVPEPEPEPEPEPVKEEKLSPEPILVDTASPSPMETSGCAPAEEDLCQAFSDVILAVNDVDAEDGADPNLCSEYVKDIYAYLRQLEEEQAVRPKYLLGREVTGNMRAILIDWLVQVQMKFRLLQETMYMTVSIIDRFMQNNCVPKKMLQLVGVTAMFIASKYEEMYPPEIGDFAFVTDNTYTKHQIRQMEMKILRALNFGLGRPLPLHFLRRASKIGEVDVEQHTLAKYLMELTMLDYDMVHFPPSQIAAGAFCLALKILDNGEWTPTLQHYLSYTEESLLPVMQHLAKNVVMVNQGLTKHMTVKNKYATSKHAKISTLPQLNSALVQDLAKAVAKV
UniProt Q8WWL7, whole entry: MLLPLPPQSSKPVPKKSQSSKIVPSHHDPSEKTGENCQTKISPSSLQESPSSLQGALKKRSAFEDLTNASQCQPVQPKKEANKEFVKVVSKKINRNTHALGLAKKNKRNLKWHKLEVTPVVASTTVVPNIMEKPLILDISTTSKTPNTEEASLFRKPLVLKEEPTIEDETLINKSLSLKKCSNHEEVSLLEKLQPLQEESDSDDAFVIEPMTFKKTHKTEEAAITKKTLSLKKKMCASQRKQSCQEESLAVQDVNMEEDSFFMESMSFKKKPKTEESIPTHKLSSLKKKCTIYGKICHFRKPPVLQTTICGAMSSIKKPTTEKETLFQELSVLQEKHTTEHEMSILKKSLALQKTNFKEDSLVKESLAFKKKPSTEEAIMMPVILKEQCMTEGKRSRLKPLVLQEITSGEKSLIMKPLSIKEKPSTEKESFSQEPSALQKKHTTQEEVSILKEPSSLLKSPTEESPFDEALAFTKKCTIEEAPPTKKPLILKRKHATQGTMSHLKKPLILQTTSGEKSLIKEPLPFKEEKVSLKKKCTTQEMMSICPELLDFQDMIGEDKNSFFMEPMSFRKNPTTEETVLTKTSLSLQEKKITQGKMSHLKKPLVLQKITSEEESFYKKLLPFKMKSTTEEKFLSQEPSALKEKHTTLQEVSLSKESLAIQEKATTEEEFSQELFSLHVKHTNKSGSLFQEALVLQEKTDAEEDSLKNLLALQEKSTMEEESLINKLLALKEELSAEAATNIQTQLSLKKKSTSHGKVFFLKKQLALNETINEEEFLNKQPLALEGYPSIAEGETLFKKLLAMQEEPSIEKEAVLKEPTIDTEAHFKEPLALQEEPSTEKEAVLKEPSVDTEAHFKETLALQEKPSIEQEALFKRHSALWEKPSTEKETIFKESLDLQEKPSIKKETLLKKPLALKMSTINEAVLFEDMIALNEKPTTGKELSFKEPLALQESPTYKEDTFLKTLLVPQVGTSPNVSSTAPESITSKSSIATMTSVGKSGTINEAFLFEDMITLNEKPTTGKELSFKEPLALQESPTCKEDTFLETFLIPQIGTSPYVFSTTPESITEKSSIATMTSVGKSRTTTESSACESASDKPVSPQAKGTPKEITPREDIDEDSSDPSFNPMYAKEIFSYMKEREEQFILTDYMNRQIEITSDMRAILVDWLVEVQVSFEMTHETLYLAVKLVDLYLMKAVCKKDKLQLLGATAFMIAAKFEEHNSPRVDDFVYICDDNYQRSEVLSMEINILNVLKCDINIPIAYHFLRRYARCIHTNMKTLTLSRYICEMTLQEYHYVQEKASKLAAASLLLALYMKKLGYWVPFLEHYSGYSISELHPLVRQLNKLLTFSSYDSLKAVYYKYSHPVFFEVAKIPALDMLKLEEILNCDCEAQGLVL

Biological target: Cyclin-dependent kinase 1/cyclin B (Homo sapiens, UniProt O95067+P06493+P14635+Q8WWL7)

CCn1cnc2c(Nc3cccc(Cl)c3)nc(NC3CCC(O)CC3N)nc21 (stereo unspecified)
IC50: 25 nM
